Among the data in paper PMC9918491 are binding values, retold here.

Chains of the proteins cited; added tags and fusions are not shown.
UniProt P45983: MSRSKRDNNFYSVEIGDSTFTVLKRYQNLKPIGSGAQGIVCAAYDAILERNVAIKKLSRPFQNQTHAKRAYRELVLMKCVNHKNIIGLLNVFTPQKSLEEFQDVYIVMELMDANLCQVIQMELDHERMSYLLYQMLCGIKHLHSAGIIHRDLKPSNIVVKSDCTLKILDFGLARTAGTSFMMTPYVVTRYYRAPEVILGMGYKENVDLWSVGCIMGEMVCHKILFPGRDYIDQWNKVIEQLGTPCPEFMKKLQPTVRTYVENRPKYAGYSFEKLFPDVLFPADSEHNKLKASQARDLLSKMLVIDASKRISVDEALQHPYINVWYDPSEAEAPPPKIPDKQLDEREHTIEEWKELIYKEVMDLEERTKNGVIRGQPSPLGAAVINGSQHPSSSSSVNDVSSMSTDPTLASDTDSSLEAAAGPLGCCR

This test concerns the target T1, TNF receptor-associated factor 4 (TRAF4) (human (endogenous in HT29)) (UniProt Q9BUZ4).
T1 sequence: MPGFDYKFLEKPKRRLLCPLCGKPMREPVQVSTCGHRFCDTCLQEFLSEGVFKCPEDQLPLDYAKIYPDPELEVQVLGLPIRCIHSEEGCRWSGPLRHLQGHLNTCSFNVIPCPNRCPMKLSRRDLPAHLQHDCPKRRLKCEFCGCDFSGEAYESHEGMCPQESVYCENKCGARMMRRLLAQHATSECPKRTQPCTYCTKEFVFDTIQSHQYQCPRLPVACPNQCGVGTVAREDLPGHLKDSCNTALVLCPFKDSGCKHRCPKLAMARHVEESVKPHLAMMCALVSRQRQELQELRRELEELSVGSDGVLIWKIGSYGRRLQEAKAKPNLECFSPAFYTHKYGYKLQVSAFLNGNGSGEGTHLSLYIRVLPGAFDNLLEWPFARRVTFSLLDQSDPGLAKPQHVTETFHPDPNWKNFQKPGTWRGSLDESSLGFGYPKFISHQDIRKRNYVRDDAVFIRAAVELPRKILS
The test can be described thus: co-IP; HT29 cells treated with or without IR (4 Gy) for 30 min; whole-cell extract subjected to co-IP; which protein was precipitated not given.

These are yes or no findings as the source states them, for the method shown. In cells and extracts the contact can be indirect. Some results given as binding are weak or reduced against the parent protein; the word gives no strength.

For “c-Jun N-terminal kinase 1 (JNK1) (from UniProt P45983 1-427)”, the binding entry is reported as “binds”.

Take “c-Jun N-terminal kinase 2 (JNK2) (from UniProt P45984 1-424)”: the binding entry is “binds”.
